Consider 1 molecule from article PMC5700102, “Primer synthesis by a eukaryotic-like archaeal primase is independent of its Fe-S cluster” (Nature Communications, 2017).

The target of this assay is T1, PriS, catalytic subunit of the heterotrimeric primase PriSLX from S. solfataricus (S. solfataricus) (UniProt Q97Z83).
T1 sequence: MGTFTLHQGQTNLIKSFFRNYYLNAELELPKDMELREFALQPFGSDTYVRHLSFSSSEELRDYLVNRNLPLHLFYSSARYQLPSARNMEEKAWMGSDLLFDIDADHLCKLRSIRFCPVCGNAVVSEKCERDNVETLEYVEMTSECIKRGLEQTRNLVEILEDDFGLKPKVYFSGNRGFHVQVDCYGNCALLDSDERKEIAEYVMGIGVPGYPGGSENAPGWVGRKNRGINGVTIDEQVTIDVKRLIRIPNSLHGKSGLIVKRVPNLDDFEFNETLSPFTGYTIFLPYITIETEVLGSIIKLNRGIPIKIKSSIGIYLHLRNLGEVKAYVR
Description: crystal structure; PriSLX heterotrimer, 2.9 Å; crystallised with 1 mM MnCl2, 2 mM AMPCPP and an RNA-DNA hybrid (not seen in the map); two heterotrimers in the asymmetric unit; both purified.

Results are given in words; binding and its absence hold for the method and conditions named. Some binding calls cover weakened binding; strength is not graded here.

B1: PriL, regulatory subunit of the heterotrimeric primase PriSLX from S. solfataricus (protein, UniProt Q9UWW1 1-307)
chain: MALDVKKYPFIKSLDDELKKYGGGITLTDLLLNSTTLIDQAKDRIQKTKSGDELPHYVSYNEPVLVFYTTLLSLAILNDVKLIRRYAYAEAKQFRSLLHTENEENLLEISKLLDLKINRCDPIKFYLEKKRRIIQKEFCVHFIDYLKYTKDLKEDWKLSGQILHKGYVYLDKNQLIGLIAESIKSKIVEMIRPLNLKEIPEKLKSLIERRGIIPPCIENILAKEKLNEEEIRTLITFYIDIGKGLSGIVSIMKKYNVSNVEDLYRKYRGDKGTRYIVYSCAKMKQLGLCVSSCNVKNPLQLYFLSNE
Consider B1, for which the binding entry is given as “binds”.
